{"source": "patent US8518459B2", "about": "“Composition for regulating lipid metabolism” (Actigenomics S.A., priority 2009, dated 2013)", "test": "Food intake of mice on cholesterol-enriched diet", "assay_type": "in vivo, C57bl6J male mice", "details": "per mouse after 12 weeks of treatment"}
{"smiles": "CC(C)c1c(C(=O)Nc2ccccc2)c(-c2ccccc2)c(-c2ccc(F)cc2)n1CC[C@@H](O)C[C@@H](O)CC(=O)O", "note": "[atorvastatin]", "values": [{"measurement": "Cumulative food intake (FIG. 4)", "result": 229, "unit": "g"}]}
